{
  "source": "patent US8936808B1",
  "about": "“Opioid agonist/opioid antagonist/acetaminophen combinations” (Purdue Pharma L.P., priority 1997, dated 2015)",
  "origin": "cited, not measured here",
  "settings": "hydrochloride salt; cited from earlier work",
  "note": "Where a name gives a salt, the structure may show the parent alone.",
  "data": [
    {"smiles": "O=C1CC[C@@]2(O)[C@H]3Cc4ccc(O)c5c4[C@@]2(CCN3CC2CC2)[C@H]1O5", "note": "[hydrochloride salt of naltrexone, naltrexone hydrochloride]", "values": [
      {"measurement": "solubility in water", "value": "about 100 mg/cc"}
    ]}
  ]
}
